Taken from: PubChem BioAssay AID504784 (Drosophila RNAi Screening Center, 2011)
Assay: 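Fly genes whose silencing alters how much lipid cells keep in droplets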 (primary screen). System: Drosophila Kc167 embryonic cells. Reagent: long dsRNA against Drosophila genes, about 250 ng dsRNA per well. Timing: 4 days. Conditions: cells fed 400 µM oleic acid bound to BSA. Read-out: 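Cells imaged and segmented; ratio of lipid droplet area to nuclear area, log-transformed, then normalised as a B-score over the screen; higher means more stored lipid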. Scale: droplet/nuclear area B-score: higher = more stored lipid (overstorage).
In all, the deposit lists about 17,000 reagents; this is an unselected part of those that have a named target and a result. 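Each column is one replicate's B-score; the combined score over replicates was not deposited, so single values may mislead.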 A plus sign joins genes that one reagent is predicted to hit. Further read-outs or replicates are left out here. No sequences are given here.

What did the screen give for abs (GeneID 40530) [DRSC12372]?
droplet/nuclear area B-score, replicate 1: -0.796

With CG12684 (GeneID 31390) [DRSC17875], what does the deposit list?
droplet/nuclear area B-score, replicate 1: -0.0387

What is on record for CG31098 (GeneID 43057) [DRSC14259]?
droplet/nuclear area B-score, replicate 1: 0.839

For janA (GeneID 43569) [DRSC16972], what does the deposit list?
droplet/nuclear area B-score, replicate 1: -1.9

For PH4alphaNE1 (GeneID 43625) [DRSC16546], what does the deposit list?
droplet/nuclear area B-score, replicate 1: -4.11

What did the screen give for CG31253 + CG31131 [DRSC13839]?
droplet/nuclear area B-score, replicate 1: -0.33

For CG32700 (GeneID 31896) [DRSC17857], what was measured?
droplet/nuclear area B-score, replicate 1: 0.25

Which result is listed for CG32700 (GeneID 31896) [DRSC17858]?
droplet/nuclear area B-score, replicate 1: -0.014

How did the screen score CG9286 (GeneID 41690) [DRSC16467]?
droplet/nuclear area B-score, replicate 1: -2.86

With emei (GeneID 39250) [DRSC10897], what does the deposit list?
droplet/nuclear area B-score, replicate 1: -0.032

What did the screen give for emei (GeneID 39250) [DRSC22684]?
droplet/nuclear area B-score, replicate 1: 2.8

Which result is listed for CG17834 (GeneID 34191) [DRSC02637]?
droplet/nuclear area B-score, replicate 1: 1.47

Which result is listed for CG1544 (GeneID 43689) [DRSC15036]?
droplet/nuclear area B-score, replicate 1: 0.236

What is on record for mid (GeneID 33770) [DRSC02977]?
droplet/nuclear area B-score, replicate 1: 0.598

Which result is listed for mid (GeneID 33770) [DRSC21493]?
droplet/nuclear area B-score, replicate 1: 1.54

For Desi (GeneID 41292) [DRSC14909], how do the results read?
droplet/nuclear area B-score, replicate 1: -0.867

For Egfrap (GeneID 3885637) [DRSC09963], what does the deposit list?
droplet/nuclear area B-score, replicate 1: -0.255

How did the screen score Egfrap (GeneID 3885637) [DRSC09964]?
droplet/nuclear area B-score, replicate 1: -0.556

What did the screen give for CG14034 (GeneID 33751) [DRSC02359]?
droplet/nuclear area B-score, replicate 1: -0.149

What did the screen give for wg (GeneID 34009) [DRSC03636]?
droplet/nuclear area B-score, replicate 1: -0.151

With CG3955 (GeneID 36438) [DRSC06859], what was measured?
droplet/nuclear area B-score, replicate 1: -0.384

Which result is listed for CG11638 (GeneID 31050) [DRSC18167]?
droplet/nuclear area B-score, replicate 1: -1.76

With CG11638 (GeneID 31050) [DRSC18640], how do the results read?
droplet/nuclear area B-score, replicate 1: 0.295

For Vm26Aa (GeneID 33829) [DRSC03472], how do the results read?
droplet/nuclear area B-score, replicate 1: 0.903

How did the screen score CG14854 (GeneID 41761) [DRSC14978]?
droplet/nuclear area B-score, replicate 1: 1.12

Which result is listed for EcR (GeneID 35540) [DRSC04906]?
droplet/nuclear area B-score, replicate 1: -0.717

What is on record for EcR (GeneID 35540) [DRSC04910]?
droplet/nuclear area B-score, replicate 1: 0.379

Part of the list above, reformatted:
target gene	DRSC id	droplet/nuclear area B-score, replicate 1
wg (GeneID 34009)	DRSC03636	-0.151
CG3955 (GeneID 36438)	DRSC06859	-0.384
CG11638 (GeneID 31050)	DRSC18167	-1.76
